From article PMC4708995
No constants are given. Whether binding was seen depends on the method and setting. In cells and extracts the contact can be indirect. Some results given as binding are weak or reduced against the parent protein; the word gives no strength.

Amino acid sequences for entries named in this document (tags omitted).
UniProt Q06330: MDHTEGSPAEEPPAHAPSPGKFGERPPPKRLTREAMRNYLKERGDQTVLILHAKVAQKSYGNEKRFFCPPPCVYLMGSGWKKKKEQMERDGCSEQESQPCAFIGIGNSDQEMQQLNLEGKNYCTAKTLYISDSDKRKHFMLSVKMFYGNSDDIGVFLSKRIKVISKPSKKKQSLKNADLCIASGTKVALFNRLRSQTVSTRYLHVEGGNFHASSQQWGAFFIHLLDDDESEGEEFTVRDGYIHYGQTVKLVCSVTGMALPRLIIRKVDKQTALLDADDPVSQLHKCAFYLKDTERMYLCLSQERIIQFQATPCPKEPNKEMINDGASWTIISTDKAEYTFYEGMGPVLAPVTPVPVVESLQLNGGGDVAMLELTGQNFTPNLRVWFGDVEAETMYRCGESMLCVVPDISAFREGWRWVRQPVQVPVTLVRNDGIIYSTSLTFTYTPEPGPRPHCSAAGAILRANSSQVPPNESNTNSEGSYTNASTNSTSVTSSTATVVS
UniProt P03204: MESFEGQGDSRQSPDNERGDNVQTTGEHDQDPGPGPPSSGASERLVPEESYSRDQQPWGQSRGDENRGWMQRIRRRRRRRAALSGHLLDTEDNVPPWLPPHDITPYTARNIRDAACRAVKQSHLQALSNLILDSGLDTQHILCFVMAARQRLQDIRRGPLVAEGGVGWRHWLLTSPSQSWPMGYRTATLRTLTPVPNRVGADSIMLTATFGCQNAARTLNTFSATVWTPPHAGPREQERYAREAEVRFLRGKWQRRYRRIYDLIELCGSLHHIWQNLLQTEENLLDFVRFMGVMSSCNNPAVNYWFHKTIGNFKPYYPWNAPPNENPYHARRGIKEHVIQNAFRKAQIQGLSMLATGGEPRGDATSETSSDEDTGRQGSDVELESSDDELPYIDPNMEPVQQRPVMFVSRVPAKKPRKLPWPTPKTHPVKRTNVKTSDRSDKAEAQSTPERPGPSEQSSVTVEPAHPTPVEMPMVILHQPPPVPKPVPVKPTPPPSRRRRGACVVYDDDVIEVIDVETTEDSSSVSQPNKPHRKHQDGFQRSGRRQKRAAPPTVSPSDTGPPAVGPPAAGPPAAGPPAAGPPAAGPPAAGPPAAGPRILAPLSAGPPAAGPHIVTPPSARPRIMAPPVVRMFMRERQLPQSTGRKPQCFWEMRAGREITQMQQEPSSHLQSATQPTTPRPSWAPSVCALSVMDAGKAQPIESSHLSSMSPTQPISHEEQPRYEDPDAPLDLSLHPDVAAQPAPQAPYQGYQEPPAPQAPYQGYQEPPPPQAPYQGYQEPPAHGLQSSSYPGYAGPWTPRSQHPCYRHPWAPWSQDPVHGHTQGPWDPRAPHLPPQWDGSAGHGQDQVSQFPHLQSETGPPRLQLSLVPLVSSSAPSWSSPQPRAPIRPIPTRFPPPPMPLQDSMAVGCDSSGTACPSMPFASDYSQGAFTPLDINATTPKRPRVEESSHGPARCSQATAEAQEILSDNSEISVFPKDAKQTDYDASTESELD

Biological target: RBPJ (human (endogenous in LCL)) (UniProt Q06330)
Assay: co-IP; RBPJ immunoprecipitated with rat monoclonal antibody 1F1 from protein extracts of 10^7 wild type EBNA3C or RBPJ BM EBNA3C LCLs, two hours at 4°C, protein G-Sepharose, washed four times in IP buffer; blots probed for EBNA3C (A10) or RBPJ (ab25949); isotype IgG control

With “Epstein-Barr virus nuclear antigen 3C (EBNA3C), wild type (from UniProt P03204 1-992)” the binding was “binds”.
